Assay [1] concerns the target RbAp46/48^LIN-53 (C. elegans) (UniProt P90916). The experiment in a line: co-IP.
The next assay deals with HAT-1 (C. elegans) (UniProt Q21484). The assay is described as follows: co-IP.

Protein sequences, listed by entry. Tags and fused reporters are not part of them.
UniProt P90916: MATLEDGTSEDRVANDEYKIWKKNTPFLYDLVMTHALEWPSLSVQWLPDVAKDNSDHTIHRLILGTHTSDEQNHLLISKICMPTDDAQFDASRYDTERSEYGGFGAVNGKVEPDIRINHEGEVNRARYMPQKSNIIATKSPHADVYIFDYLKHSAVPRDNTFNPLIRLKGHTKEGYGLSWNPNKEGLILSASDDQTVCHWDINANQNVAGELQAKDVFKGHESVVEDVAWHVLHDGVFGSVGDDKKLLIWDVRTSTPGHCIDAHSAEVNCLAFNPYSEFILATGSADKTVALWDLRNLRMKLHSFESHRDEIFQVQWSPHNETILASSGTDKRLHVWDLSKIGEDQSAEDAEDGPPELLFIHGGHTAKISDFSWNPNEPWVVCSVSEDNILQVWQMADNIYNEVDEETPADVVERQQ

In publication doi:10.1101/2020.04.12.019257 one finds binding data, which are given here for two substances.

No constants are given. Whether binding was seen depends on the method and setting. Binding seen in cells or lysates may run through a third protein. A result given as binding can be weak or reduced; the word gives no strength.

Turning to HAT-1 (from UniProt Q21484) (enzyme), in assay [1], the binding result was “binds”.

“RbAp46/48^LIN-53 (from UniProt P90916 1-417)”: the binding entry with HAT-1 (C. elegans) is reported as “binds”.
